Measured values published in article PMC7527512.

System: MBP-CaMYB48
Test: EMSA
Conditions: 1- to 20-fold excess unlabeled probe decreased binding; LightShift Chemiluminescent EMSA Kit per manufacturer; temperature not stated; recombinant protein; protein details: N-terminal MBP (pMAL-c2X); label: 3' biotin (unlabeled as cold competitor)

AATTGGAGGGTGTTAGGTGTATTATATTAAATTTGTAAAGTT (double strand) [AT3a promoter wild-type probe]
binding result: binds

For at least one entry, the source does not settle the construct or the ends of the probe.
